Reference: PubChem BioAssay AID1671195 (Yale University, 2021)
The deposit covers about 22,000 reagents; this is a random part of them. In the full data, about 1,510 (6.9%) are marked active. 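Active includes knockdowns raising or lowering LDL uptake; positive z-scores mean more uptake, negative mean less.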 Unmarked entries are inactive.

- Assay: 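Genes whose knockdown alters LDL uptake in liver cancer cells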 (primary screen)
- Cells: human Huh7 hepatoma cells
- Knock-down reagent: siRNA pool against human genes, 18 nM
- Duration: about 2 to 2.5 days of knockdown, then 8 h LDL uptake
- Conditions: DiI-labelled LDL at 30 µg/ml for 8 h, in lipoprotein-deficient serum medium
- Read-out: 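Per-cell DiI-LDL intensity by automated imaging; well means scaled to the plate median and given as a robust z-score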
- Reading the numbers: robust z-score: higher = more LDL uptake after knockdown
- Call rule: 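a gene counts as active if at least two replicate z-scores exceed ±2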

| gene | robust z-score, replicate 1 | robust z-score, replicate 2 | robust z-score, replicate 3 |
| --- | --- | --- | --- |
| CLEC16A | -0.578 | 0.175 | -0.274 |
| RNF144B | 2.86 (active) | 1.85 | 2.26 |
| SP5 | 0.598 | 1.08 | 0.987 |
| XRN2 | -1.26 | -1.8 | -1.94 |
| SAGE1 | -0.391 | 1.2 | 0.866 |
| MED25 | -0.357 | -0.00427 | -0.45 |
| CEP15 | 0.132 | -0.29 | 0.41 |
| CNDP2 | -0.0419 | -0.375 | -0.191 |
| SPNS2 | -0.731 | -0.816 | -1.18 |
| IFT88 | -2.01 (active) | -1.41 | -2.01 |
| ARHGEF1 | 0.454 | 0.0607 | 0.284 |
| AASDHPPT | -1.04 | -1.48 | -0.891 |
| BTG3 | -0.373 | 2.33 | 1.28 |
| FUBP1 | -1.22 | -0.815 | -1.04 |
| ARGLU1 | -1.41 | -1.97 | -1.55 |
| SLC27A4 | -0.705 | -0.877 | -1.83 |
| VCL | -0.82 | -1.19 | -1.07 |
| PAXBP1 | 0.321 | 0.273 | 0.637 |
| LOC197387 (retired record) | 0.941 | 0.467 | 1.2 |
| ZNF710 | 0.916 | 1.2 | 1.45 |
| PGCKA1 | -0.712 | 0.311 | -0.858 |
| SPPL3 | 1.01 | 0.809 | 0.688 |
| PANK1 | 1.35 | 0.96 | 1.36 |
| UBE2D3 | 0.613 | 1.3 | 0.434 |
| GTPBP4 | -0.92 | 0.893 | -0.5 |
| AKAP5 | -0.294 | 0.231 | -0.267 |
| VPS33A | 1 | 1.02 | 0.941 |
| ABAT | -0.00346 | 0.345 | -0.322 |
| SLC6A3 | -0.887 | -1.05 | -0.743 |
| PEX5 | -1.75 | -1.5 | -2.04 |
| KCNJ11 | -0.381 | -1.05 | 0.222 |
| ALPK1 | -1.65 | -1.28 | -1.49 |
| S1PR4 | -0.996 | -0.214 | -1.4 |
| CAMKK1 | 0.0385 | 0.572 | 0.906 |
| LOC128939 (retired record) | 0.917 | 0.57 | -0.187 |
| GSTM1 | -0.364 | 0.162 | 0.379 |
| CCN5 | 2.6 | 0.422 | 1.49 |
| NABP1 | 1.43 | 1.37 | 1.66 |
| KDSR | -1.91 | -1.88 | -1.94 |
| SACK1D | 0.484 | 0.0744 | 0.582 |
| SEMG1 | 0.725 | 0.409 | -0.178 |
| CHRNB3 | -0.514 | -0.636 | -0.773 |
| UBD | 2.7 (active) | 2.5 | 2.41 |
| BCOR | 0.945 | 0.261 | 1.62 |
| GRIA1 | 0.721 | -0.00095 | -0.0499 |
| KRTAP4-4 | 0.372 | -0.227 | 0.0319 |
| DNAJB8 | -0.225 | 0.00524 | -0.0824 |
| RPS15AP9 | -1.22 | -1.03 | -0.973 |
| SPATS2L | 0.735 | 1.21 | 2.24 |
| RHOU | -1.78 | -0.896 | -1.53 |
| PI16 | -1.6 | -1.77 | -1.55 |
| KCTD1 | 0.878 | 1.03 | 0.804 |
| TRPM4 | 0.652 | -0.66 | -0.333 |
| INTS4P1 | -0.816 | -0.703 | -0.461 |
| LOC440516 (retired record) | -0.226 | -0.136 | -0.287 |
| KRTAP20-1 | 0.496 | 0.274 | 0.278 |
| COLEC11 | 0.116 | -0.147 | -0.442 |
| RRP36 | -0.93 | -1.28 | -0.532 |
| PCED1A | 0.391 | 0.64 | 0.681 |
| PHF10 | -1.1 | 1.15 | 1.06 |
| SLFN12 | 0.876 | 1.07 | 2.77 |
| FES | -0.483 | -1.16 | -1.52 |
| PHKA1P1 | -1.22 | -0.899 | -0.996 |
| ELP4 | -0.363 | -0.427 | -1.05 |
| CSTF3 | -0.581 | 0.357 | -0.521 |
| TRIP13 | 1.76 | 0.437 | 1.71 |
| CIMAP1D | -1.47 | -1.49 | -1.55 |
| ANG | 2.69 (active) | 2.32 | 1.75 |

Limited to “robust z-score, replicate 3” (5 entries from above):
SAGE1	0.866
MED25	-0.45
CEP15	0.41
CNDP2	-0.191
SPNS2	-1.18
